In PubChem BioAssay AID624291 (National Center for Advancing Translational Sciences (NCATS), 2012):
Out of some 350,000 compounds screened, about 220 (0.063%) were called active. Inconclusive results, whose numbers are uncertain, are shown with a selection of clear calls. The call rests on the fitted dose curve; in most records, active means well fitted activation curve with a large enough effect; inconclusive means small, poorly fitted or top-dose-only effect; inactive means no such curve, though single readings can be large or run the other way. Where the call is inconclusive, the potency comes from a doubtful curve fit.
Potency means the concentration at half of the fitted maximal effect.

Test: qHTS for Activators of Integrin-Mediated Alleviation for Muscular Dystrophy; further: nearly all actives have a fitted effect of over 60% in size;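 on activation: 100% = response of the positive control SU9516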
Settings: alpha7betagal myoblasts, beta-gal FDG fluorescence, 48 h; activation: at 38.3 µM (top of the series)
Procedure, shortened: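 alpha7betagal+/- myoblasts (passage 13, 250/well) treated 48 h at 37C with compounds at 1:260 dilution of DMSO stock. Lysed, then beta-galactosidase activity read as FDG fluorescence (ex 480/em 540) after 30 min, with pre-read for autofluorescence.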
For `O=C1CN=C(c2ccc(Br)cc2)c2c(sc3c2CCCC3)N1CCN1CCCCC1`, the Potency was inconclusive: 4.47 µM [activator, single point]. For `Cn1c(O)c(C=Nc2ccccc2)c(=O)n(C)c1=O`, the Potency was inconclusive: 5.01 µM [activator, single point]. In the case of `COc1ccc2c3c1OC1C(O)C=CC4C(C2)[N+](C)(C)CCC341` (stereo not given), the “activation” value is reported as inactive: -2.58%. For `C[C@@H]1CC2C3CC=C4C[C@@H](O)CC[C@]4(C)C3CC[C@]2(C)[C@H]1O` (stereo not given in full), the Potency was inconclusive: 5.01 µM [activator, single point]. In the case of `NC(=O)c1cn(C2OC(CO)C(O)C2O)c2ncnc(N)c12` (stereo not given), the activation is reported as inconclusive: -49.2% [activator]. In the case of `Cc1ccc(N=C(N(C)C)P(=O)(N(C)C)N(C)C)cc1`, the Potency is reported as inconclusive: 4.47 µM [activator, single point]. In the case of `Cc1cc(N(CCCl)CCCl)ccc1C=NNC(=O)Cc1cc(=O)oc2cc(O)ccc12`, the “activation” value is reported as inactive: -19.8%. For `CC(=Nc1c(C)n(C)n(-c2ccccc2)c1=O)c1c(O)n(Cc2ccccc2)c(=O)[nH]c1=O`, the “activation” value was inactive: 9.45%. In the case of `COc1cccc(C2C([N+](=O)[O-])=C(N)Oc3c2c(=O)oc2ccccc32)c1` (stereo not given), the Potency is reported as inconclusive: 10 µM [activator, single point]. For `O=C1NC(=O)N(c2ccccc2F)C(=O)/C1=C/c1ccc(Oc2ccc([N+](=O)[O-])cn2)cc1`, the “activation” value was inactive: -13.2%. In the case of `CN(C)C(=O)Oc1ccc2c(c1)O/C(=C\c1cccc(Cl)c1)C2=O`, the “activation” value is reported as inactive: -24.4%. With `COc1ccc(-c2n[nH]c(=S)n2-c2ccc3c(c2)OCCO3)cc1OC` the Potency was inconclusive: 2.82 µM [activator, single point]. For `Cc1ccc2[nH]c3c(c2c1)CN(C(=O)CN1C[C@H]2C[C@@H](C1)c1cccc(=O)n1C2)CC3`, the “activation” value was inactive: -5.02%. For `Cc1c(C=C2C(=O)N(C)C(=O)N(C)C2=O)c(=O)n(-c2ccccc2)n1C`, the “activation” value was inactive: 22.7%. In the case of `COCC(C)OC(=O)c1c(N)n(Cc2ccco2)c2nc3ccccc3nc12` (stereo not given), the “activation” value is reported as inactive: 14.9%. In the case of `Cc1cc(NC(=O)COC(=O)c2c(C)nn(Cc3ccccc3Cl)c2C)no1`, the Potency is reported as inconclusive: 1.41 µM [activator, partial curve, poor fit]. In the case of `C/C(=N\NC(=O)c1ccccc1Cl)c1c(O)n(C2CCCCC2)c(=O)[nH]c1=O`, the Potency is reported as inconclusive: 5.01 µM [activator, single point]. For `O=[N+]([O-])c1cc(-n2cnnn2)c(O)c([N+](=O)[O-])c1`, the Potency was inconclusive: 1 µM [activator, full curve, poor fit]. For `Cc1cc(/C=C2\C(=O)NC(=O)N(c3ccccc3)C2=O)c(C)n1-c1ccc(C(=O)O)c(Cl)c1`, the Potency was inconclusive: 28.2 µM [activator, single point]. With `CC(C)OC(=O)C1C2c3ccccc3C(c3ccccc32)C1C(=O)O` (stereo not given) the Potency was inconclusive: 28.2 µM [activator, single point]. With `Cc1cccc(CN2CCN(c3ccc(Cl)cc3)CC2)c1` the Potency was inconclusive: 3.16 µM [activator, single point]. For `O=C1CC=C2C3CC4N(CCC45c4cc(O)c(O)cc4N1C25)CC3=CCBr` (stereo not given), the Potency was inconclusive: 3.16 µM [activator, single point]. With `CN(C)c1ccc(CN2CC=C(c3ccc(F)cc3)CC2)cc1` the Potency was inconclusive: 1 µM [activator, single point]. With `COC(=O)CCCCCCCCC(O)C[N+]1(C)CCOCC1` (stereo not given) the Potency was inconclusive: 5.62 µM [activator, full curve, poor fit]. In the case of `O=[N+]([O-])c1ccc(N2CCOCC2)c2c1no[n+]2[O-]`, the “activation” value is reported as inactive: -67.9%. With `COCc1cc(OC(=O)N(C)C)nc(-c2ccccc2)n1` the Potency was inconclusive: 5.01 µM [activator, single point]. In the case of `CNC1(c2ccc(F)cc2)CCCCC1`, the Potency is reported as inconclusive: 0.708 µM [activator, full curve, poor fit]. With `CN(C)C(=O)Oc1ccc(Br)c2ccccc12` the Potency was inconclusive: 7.94 µM [activator, partial curve, poor fit]. For `O=c1[nH]c(=S)n(Cc2ccc(F)cc2)c(O)c1C=NCc1ccc2c(c1)OCO2`, the activation was inconclusive: 14.4% [activator]. For `COc1ccccc1N1CCN(Cc2ccc(Br)s2)CC1`, the “activation” value was inactive: -23.9%. For `Cc1[nH]c2ccccc2c1C(=O)CN1CC=C(c2ccccc2)CC1`, the “activation” value was inactive: -8.92%. In the case of `COc1ccc(-n2c(/C=C/c3ccc4c(c3)OCO4)nc3ccccc3c2=O)cc1`, the Potency is reported as inconclusive: 2.82 µM [activator, single point]. With `O=C1C(=Cc2ccccc2)N2CCC1CC2` the “activation” value was inactive: 17.8%. In the case of `Cn1c[n+](C)cc1C(O)c1ccccc1` (stereo not given), the Potency is reported as “inactive”. In the case of `CC(c1nc2ccccc2c(=O)[nH]1)N(C)CCOc1ccc(Cl)cc1` (stereo not given), the Potency is reported as inconclusive: 5.01 µM [activator, single point]. In the case of `CCN(CC)C(=O)c1ccc(NC(=O)COC(=O)c2ccc(Cl)s2)cc1`, the “activation” value is reported as inactive: -19%. With `COc1ccc2c(c1)CC1(CN2C)C(=O)NC(=O)N(c2ccc(F)cc2)C1=O` (stereo not given) the Potency was inconclusive: 2.24 µM [activator, partial curve, poor fit]. In the case of `C#CC1(O)CCC2C3CCC4=C/C(=N/OCC(=O)NCC(=O)NC(C(=O)O)C(C)C)CC[C@]4(C)C3CC[C@@]21C` (stereo not given in full), the Potency is reported as inconclusive: 2.24 µM [activator, full curve, poor fit]. In the case of `COC(=O)c1c2[n+](cc3cc(OC)c(OC)cc13)CCc1cc(OC)c(OC)cc1-2`, the Potency is reported as inconclusive: 5.01 µM [activator, single point]. With `O=C(Nc1ccc(Cl)cc1)Nc1ccc(Cl)c(Cl)c1` the “activation” value was inactive: -38.2%. In the case of `C=CCn1c(O)c(/C=N/N2CCOCC2)c(=O)[nH]c1=S`, the Potency is reported as inconclusive: 3.55 µM [activator, full curve, poor fit]. For `CCCCOc1ccc(C(C)=O)cc1Cc1c(O)[nH]c(=S)[nH]c1=O`, the Potency was inconclusive: 5.62 µM [activator, full curve, poor fit]. With `Cc1ccccc1-n1c(-c2ccc([N+](=O)[O-])cc2)nc2ccccc2c1=O` the Potency was inconclusive: 22.4 µM [activator, single point]. In the case of `CC(=O)OC1CC[C@@]2(C)C(=CC(=O)C3C4CCC(OC(C)=O)[C@@]4(C)CCC32)C1` (stereo not given in full), the Potency is reported as inconclusive: 28.2 µM [activator, partial curve, poor fit]. In the case of `O=P(O)(O)COc1ccccc1O`, the Potency is reported as inconclusive: 5.01 µM [activator, single point]. In the case of `O=C1NC(=O)N(c2ccccc2)C(=O)/C1=C/C=C/c1ccco1`, the “activation” value is reported as inactive: -59%. With `CCCc1nc2ccccc2c(=O)n1-c1ccc(O)cc1` the Potency was inconclusive: 28.2 µM [activator, partial curve, poor fit]. With `CC/C(=N\NC(=O)c1ccccc1)c1c(O)n(C2CCCCC2)c(=O)[nH]c1=O` the “activation” value was inactive: 16.1%. In the case of `CC(=O)c1ccc(OC(C)C)c(Cc2c(O)[nH]c(=S)[nH]c2=O)c1`, the “activation” value is reported as inactive: -17%. In the case of `O=C(Cc1ccccc1)N1CCN(C2CCCCCC2)CC1`, the Potency is reported as inconclusive: 10 µM [activator, single point]. For `CCCCCCCCCCCCn1ccc(=N)cc1`, the activation was inconclusive: -79.9% [activator]. With `O=C1CC=C2C3CC4N(CCC45c4ccccc4N1C25)CC3=CCO` (stereo not given) the “activation” value was inactive: -9.88%. For `COc1ccc2nc(NC3=NCCN3)sc2c1`, the “activation” value was inactive: 8.81%. In the case of `CNC(=S)N1CC2CC(C1)c1cccc(=O)n1C2` (stereo not given), the Potency is reported as inconclusive: 2.82 µM [activator, partial curve, poor fit]. For `NC(Cc1ccccc1Cl)c1nn[nH]n1` (stereo not given), the “activation” value was inactive: -6.15%. With `CCCCC(=O)N/N=C/c1c(O)n(CCCC)c(=S)[nH]c1=O` the Potency was inconclusive: 12.6 µM [activator, partial curve, poor fit]. For `CCOc1ccc(-n2c(O)c(C=Nc3ccc(N(CC)CC)cc3)c(=O)[nH]c2=O)cc1`, the Potency was inconclusive: 2.51 µM [activator, single point]. For `CN1CC(C(=O)c2ccc(F)cc2)C(c2ccc(F)cc2)C1` (stereo not given), the Potency was inconclusive: 2.51 µM [activator, single point]. With `COc1ccccc1C1C([N+](=O)[O-])=C(N)Oc2c1c(=O)oc1ccccc21` (stereo not given) the Potency was inconclusive: 14.1 µM [activator, partial curve, poor fit]. With `CCOc1cc2c(cc1OCC)-n1cccc1C(c1ccccc1O)NC2` (stereo not given) the Potency was inconclusive: 10 µM [activator, single point]. With `CC(C)(C)n1cc(C(=O)c2ccccc2OCCCF)cn1` the Potency was inconclusive: 5.01 µM [activator, single point]. With `COc1ccc(-n2c(O)c(/C=C3\C=Nc4ccccc43)c(=O)[nH]c2=O)cc1` the Potency was inconclusive: 3.55 µM [activator, single point]. In the case of `C/C(=N\N1CCCCC1)c1c(O)[nH]c(=O)[nH]c1=O`, the Potency is reported as inconclusive: 22.4 µM [activator, single point]. In the case of `O=C1NC(=S)NC(=O)C1=Cc1ccc(OCC(=O)N2CCCC2)cc1`, the Potency is reported as inconclusive: 22.4 µM [activator, single point]. With `COCCNC(=O)c1c(N)n(Cc2ccco2)c2nc3ccccc3nc12` the “activation” value was inactive: -14.5%. For `O=P(Nc1ccccc1)(Oc1ccccc1)Oc1ccccc1`, the “activation” value was inactive: 0.655%. With `COC(=O)Cn1cc(/C=C2\C(=O)NC(=O)N(c3ccccc3)C2=O)c2ccccc21` the Potency was inconclusive: 1.58 µM [activator, partial curve, poor fit]. For `CN(C(=O)c1ccc(Cl)nc1)C1(c2ccccc2Cl)CCCCC1=O` (stereo not given), the Potency was inconclusive: 3.98 µM [activator, single point]. In the case of `CNCC(=O)c1ccccc1`, the “activation” value is reported as inactive: -4.43%. For `CC1=CC(O)C(O)C2(C)C1CC1OC(=O)C(O)C3C(C)C(O)C4(O)OCC13C42` (stereo not given), the “activation” value was inactive: 8.28%.
